Assay results from PubChem BioAssay AID2685 (National Center for Advancing Translational Sciences (NCATS), 2010).
The other results are listed elsewhere or left out. These are further read-outs of the screen, such as a control signal, another cell line or another target. No call is given for them. Compounds called inactive in the main read-out are mostly missing here. Words in brackets tell the shape of the fitted curve; partial curves, single points and poor fits give uncertain potencies.

Test: qHTS Assay for Lipid Storage Modulators in Drosophila S3 Cells;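 on cell number change: cells counted by Cell Tracker Red CMTPX staining in the red channel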
Conditions: BODIPY lipid droplet fluorescence, 18-24 h; for cell number change: measured here: cell count max response, cells fed with added oleic acid
Procedure, shortened: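 Drosophila S3 cells got compounds at several concentrations plus oleic acid (400 uM solution). Laser-scanning cytometry with 488 nm excitation read lipid droplets at 500-530 nm and cells at 575-640 nm. Percent activity was relative to 20 uM Triacsin C.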

[1] = measured here: lipid fluorescence (Fed channel) AC50, cells fed with added oleic acid
[2] = measured here: cell number channel AC50, cells fed with added oleic acid

| SMILES | cell number change | AC50 [1] | AC50 [2] |
| --- | --- | --- | --- |
| COc1ccccc1NC(=O)c1ccccc1NS(=O)(=O)N1CCCC1 | 3.17% | 0.651 µM [rising, full curve] |  |
| CC(C)(C)NC(=O)c1ccc(COCC(F)(F)F)o1 | 33.6% | 1.84 µM [falling, partial curve] | 23.1 µM [rising, single point] |
| Cc1cc(SCC(=O)N/N=C/c2ccc(O)c(O)c2O)c(C)cc1Br | -2.88% | 3.26 µM [rising, single point] |  |
| CCN1C(=O)N(CC)C2C1N(CO)C(=O)N2CO (stereo not drawn) |  | 0.58 µM [rising, single point] |  |
| CCOC(=O)c1ccc(NC(=O)c2cc(S(=O)(=O)N3CCOCC3)cn2C)cc1 | 7.2% |  |  |
| COc1ccccc1NS(=O)(=O)c1cccc(C(=O)N/N=C(\C)c2cccnc2)c1 | 6.64% | 0.291 µM [rising, partial curve, poor fit] |  |
| O=C1NN(c2cccc(Br)c2)C(=O)/C1=C\c1ccc(O)cc1 | -24.3% | 6.51 µM [falling, partial curve, poor fit] | 4.11 µM [falling, full curve, poor fit] |
| CN1CCN(CCOCCOc2ccc(Br)cc2Cl)CC1 | 11.1% | 0.058 µM [rising, full curve, poor fit] |  |
| Cc1ccccc1Nc1nc(-c2cccnc2)cs1 | 2.49% | 0.58 µM [rising, single point] |  |
| Cc1cc(C)c(S(=O)(=O)N2CCC(C(=O)NCc3ccco3)CC2)c(C)c1 | 2.8% | 0.82 µM [falling, full curve] | 0.00461 µM [falling, full curve, poor fit] |
| O=C(CSc1nnc(NC(=O)c2ccc(F)cc2F)s1)NC1CCCC1 | 9.72% |  |  |
| Cc1c(C(=O)NCCN2CCOC2=O)oc2c(F)cccc12 | 17.2% | 29.1 µM [falling, single point] |  |
| COc1cc2ccccc2cc1-c1nnc(COc2ccccc2)o1 | -55.1% | 16.4 µM [falling, single point] | 25.9 µM [falling, single point] |
| O=C1C2C3C=CC(C4CC34)C2C(=O)N1c1cccc2ccccc12 (stereo not drawn) | -25% | 29.1 µM [falling, single point] |  |
| CC(C)c1ccc(S(=O)(=O)Nc2ccc(O)c(Sc3ncn[nH]3)c2)cc1 | -18.4% |  |  |
| Cc1c(Cl)c([N+](=O)[O-])nn1CC(=O)Nc1ccc2c(c1)OCO2 | -40.1% | 29.1 µM [falling, single point] | 4.61 µM [falling, single point] |
| CC(Oc1ccc2c(-c3ccccc3)cc(=O)oc2c1)C(=O)NCCCn1ccnc1 (stereo not drawn) | -1.16% |  |  |
| Cc1cc(C)c(NC(=O)COC(=O)C2CCC2)c(Cl)c1 | 15.1% | 0.0517 µM [rising, full curve, poor fit] | 0.00411 µM [rising, full curve, poor fit] |
| CCn1c(SCC(=O)OC)nc2sc3c(c2c1=O)CC(C)(C)OC3 | 10.5% |  |  |
| COc1cc(OC)cc(-c2c(-c3cccs3)c3cc(-c4ccc(SC)cc4)ccc3n2C)c1 | -24.1% | 0.92 µM [falling, partial curve, poor fit] |  |
| Cc1c(CCC(=O)NCCCn2ccnc2)c(=O)oc2cc3oc4c(c3cc12)CCCC4 | 9.66% | 29.1 µM [falling, single point] |  |

Another view of some results above:
SMILES,cell number change,AC50 [1],AC50 [2]
Cc1cc(C)c(S(=O)(=O)N2CCC(C(=O)NCc3ccco3)CC2)c(C)c1,2.8%,"0.82 µM [falling, full curve]","0.00461 µM [falling, full curve, poor fit]"
O=C1C2C3C=CC(C4CC34)C2C(=O)N1c1cccc2ccccc12 (stereo not drawn),-25%,"29.1 µM [falling, single point]",
CC(C)c1ccc(S(=O)(=O)Nc2ccc(O)c(Sc3ncn[nH]3)c2)cc1,-18.4%,,
CC(Oc1ccc2c(-c3ccccc3)cc(=O)oc2c1)C(=O)NCCCn1ccnc1 (stereo not drawn),-1.16%,,

Next compounds.

| SMILES | cell number change | AC50 [1] | AC50 [2] |
| --- | --- | --- | --- |
| Cc1cc(C(=O)NCC(C)(C)N2CCOCC2)c(C)o1 | -5.22% |  |  |
| c1cc(-c2ccncc2)ccn1 | 7.4% | 29.1 µM [rising, single point] |  |
| CC(=O)c1cccc(OCC(=O)Nc2ccccc2N2CCOCC2)c1 | -37% | 0.58 µM [rising, full curve] | 14.6 µM [falling, single point] |
| NC(=O)C1CC(=O)N(c2ccc(OCC(=O)NCc3ccccc3)cc2)C1 (stereo not drawn) | 11.7% |  |  |
| CCCOc1ccc(-c2nc(C#N)c(N3CCN(C)CC3)o2)cc1 | -0.329% | 0.461 µM [falling, single point] |  |
| CN1C(C(=O)Nc2ccc(OC(F)(F)F)cc2)=CC(c2cccs2)=NS1(=O)=O | 19.1% |  |  |
| O=C(c1cccc(S(=O)(=O)Nc2ccccc2Cl)c1)N1CCCCCC1 | 19.7% |  |  |
| COc1ccccc1/C=C/C(=O)OCC(=O)c1c(N)n(C)c(=O)n(C)c1=O | 10.8% | 0.461 µM [rising, single point] |  |
| Cc1cc(NS(=O)(=O)c2ccc(NC(=S)NC(=O)c3ccc(Cl)cc3Cl)cc2)no1 | -4.1% | 0.164 µM [falling, full curve, poor fit] |  |
| COc1ccc2nc(Nc3nc(-c4cc5ccccc5oc4=O)cs3)sc2c1 | 18.1% |  |  |
| CC1Cc2nc(SCC(=O)N3CCOCC3)n(-c3ccccc3)c(=O)c2S1 (stereo not drawn) | 31.4% | 0.461 µM [falling, full curve] | 29.1 µM [rising, single point] |
| Cc1cc(OCC(=O)NCc2ccccn2)cc(C)c1Br | 38.4% | 11.6 µM [rising, partial curve] | 6.51 µM [rising, partial curve, poor fit] |
| CC1CCN(c2ccc(NC(=O)Cn3c(=O)oc4ccccc43)cc2)CC1 | -20.3% | 14.6 µM [falling, partial curve, poor fit] |  |
| CCOc1ccc(CCNC(=O)c2c(C)noc2C)cc1OCC | 13.9% | 29.1 µM [rising, single point] |  |
| O=C(Nc1ccc2[nH]c(=O)[nH]c2c1)C(F)(F)F | 13.2% | 6.51 µM [rising, partial curve, poor fit] |  |
| COc1ccccc1OCC(=O)n1cc(C(=O)c2cc(Cl)cc(Cl)c2O)cn1 | -6.19% | 2.06 µM [falling, partial curve, poor fit] |  |
| CC(C)Oc1cc(O)c2c(=O)c(-c3ccc(O)cc3)coc2c1 | -0.98% |  |  |
| CCOC(=O)N1CCN(C(=O)c2cccc(NC3=NC4CS(=O)(=O)CC4S3)c2)CC1 (stereo not drawn) | -12.2% | 29.1 µM [falling, single point] |  |
| O=C(c1cccc(Oc2ccc([N+](=O)[O-])cc2Cl)c1)N1CCCCC1 | 24.6% | 6.51 µM [rising, partial curve, poor fit] |  |
| O=C(C1COc2ccccc2O1)N1CCN(Cc2ccccc2)CC1 (stereo not drawn) | -4.01% |  |  |
| COc1ccc2c(CSc3nc4nc(C)cc(C)n4n3)cc(=O)oc2c1 | -2.35% | 2.06 µM [rising, partial curve] |  |

| SMILES | cell number change | AC50 [1] | AC50 [2] |
| --- | --- | --- | --- |
| O=C(NCc1ccccc1)Nc1cccn(Cc2ccccc2Cl)c1=O | -37.8% |  | 29.1 µM [falling, single point] |
| CCOC(=O)c1ccc(NC(=S)NC(=O)c2nn(CC)cc2Br)cc1 | 16.2% | 29.1 µM [rising, single point] |  |
| Cc1cccc(N2C(=O)/C(=C\c3ccc(OC(F)F)cc3)c3ccccc3C2=O)c1 | -12.4% | 11.6 µM [falling, single point] |  |
| O=C(c1ccc(S(=O)(=O)N2CCCC2)cc1)N1CCCCC1 |  | 6.51 µM [falling, single point] |  |
| COc1ccc(C(O)(C(=O)NNc2ccc(C)cc2)c2cccs2)cc1 (stereo not drawn) |  | 29.1 µM [falling, single point] |  |
| CCNc1c(NS(=O)(=O)c2ccc([N+](=O)[O-])cc2)c(=O)oc2ccccc12 | -7.14% | 6.51 µM [rising, single point] |  |
| O=C1CC(SCc2nc3ccccc3[nH]2)C(=O)N1c1ccc(Cl)cc1 (stereo not drawn) | 9.23% | 1.64 µM [falling, partial curve, poor fit] |  |
| Cc1ccc(Cl)c(NC(=O)COC(=O)c2nn(C)c(=O)c3ccccc23)c1Cl | 15.1% | 8.2 µM [rising, full curve, poor fit] |  |
| CN1CCN(Cc2cccc3ncccc23)CC1CCO (stereo not drawn) | -10.7% |  |  |
| O=C(COC(=O)C1CCCCC1)Nc1cccc(Br)c1 | 0.842% | 18.4 µM [falling, single point] |  |
| CCOC(=O)CC(=O)CSc1nc(C)nc2c1oc1ccccc12 | 12.8% |  | 1.3 µM [rising, partial curve] |
| O=C(CNS(=O)(=O)c1ccc(Br)s1)NCCc1ccc(Cl)cc1 |  | 6.51 µM [rising, single point] |  |
| COc1ccc(S(=O)(=O)N(C)C)cc1NC(=O)c1ccc(OCC(=O)N2CCOCC2)c(OC)c1 | 21.4% | 29.1 µM [rising, single point] |  |
| COc1ccc(NC(=S)NCc2ccco2)c(OC)c1 |  | 6.51 µM [falling, single point] |  |
| Cc1cc2ccccc2n2c(SCC(=O)NCC3CCCO3)nnc12 (stereo not drawn) | 22.6% | 3.66 µM [falling, single point] |  |
| CCc1ccccc1NC(=O)NCc1ccccn1 | 14.4% | 3.26 µM [rising, single point] |  |
| OC(CNCCC(c1ccccc1)c1ccccc1)COc1ccccc1 (stereo not drawn) | -121% |  | 29.1 µM [falling, single point] |
| CN(C)c1ccc(NC(=O)CSc2nc3c(c(=O)[nH]2)CCCC3)cc1 |  | 0.0517 µM [rising, full curve, poor fit] |  |
| Nc1nc(CN2CCN(c3ccccn3)CC2)nc(Nc2ccc(Cl)cc2)n1 | 106% | 4.61 µM [rising, partial curve] | 9.2 µM [rising, partial curve] |
| Cc1ccc(C(C)C)c(OCC(O)CN2CCc3ccccc3C2)c1 (stereo not drawn) | -49.3% |  | 23.1 µM [falling, single point] |
| CC(NC(=O)NC1CCCCC1)c1ccc2c(c1)OCO2 (stereo not drawn) | -36% | 6.51 µM [falling, single point] | 2.59 µM [falling, full curve] |
